Assay results as given in publication PMC4522657, “Identification of a DYRK1A Inhibitor that Induces Degradation of the Target Kinase using Co-chaperone CDC37 fused with Luciferase nanoKAZ” (Scientific Reports, 2015).

System: CDC37-nanoKAZ
Assay: Luminescence activity of CDC37-nanoKAZ in total cell lysates
Assay type: cell-based
Settings: counter-test, same concentrations as interaction assay
Method: The luminescence activity of the cell lysates was determined using a Centro LB 960 Microplate Luminometer (Berthold Technologies, Bad Wildbad, Germany). A reaction mixture containing bis-coelenterazine (final concentration of 0.1–1 μg/100 μL) in PBS containing 0.02% Tween20 and 20 mM EDTA was injected. The luminescence intensity was recorded at 0.1 s intervals for 10 s or 10 min. The maximum luminescence intensity (Imax), represented in relative luminescence units (rlu), was used in the study.
Targeting the DYRK1A/CDC37 complex
(a-d) Luminescence intensities of total cell lysates of cells treated with the indicated […]
Figure 4. Luminescence intensities at each concentration are shown as fold-changes relative to that at 0 nM. Points are means ± SD (n = 3).
(1 picture or pasted object on this page, not shown here)
Luminescence intensities of total cell lysates of cells treated with the indicated concentrations of CaNDY, as also used in Figure 5c. Luminescence intensities at each concentration are shown as fold-changes to that at 0 nM. Points are means ± SD (n = 3).

CN[C@@H]1C[C@H]2O[C@@](C)([C@@H]1OC)n1c3ccccc3c3c4c(c5c6ccccc6n2c5c31)C(=O)NC4 [staurosporine]
inhibition of luminescence activity of CDC37-nanoKAZ: did not inhibit
